The results in this text go back to publication PMC8558183.

Protein sequences, listed by entry. Tags and fused reporters are not part of them.
UniProt P23771: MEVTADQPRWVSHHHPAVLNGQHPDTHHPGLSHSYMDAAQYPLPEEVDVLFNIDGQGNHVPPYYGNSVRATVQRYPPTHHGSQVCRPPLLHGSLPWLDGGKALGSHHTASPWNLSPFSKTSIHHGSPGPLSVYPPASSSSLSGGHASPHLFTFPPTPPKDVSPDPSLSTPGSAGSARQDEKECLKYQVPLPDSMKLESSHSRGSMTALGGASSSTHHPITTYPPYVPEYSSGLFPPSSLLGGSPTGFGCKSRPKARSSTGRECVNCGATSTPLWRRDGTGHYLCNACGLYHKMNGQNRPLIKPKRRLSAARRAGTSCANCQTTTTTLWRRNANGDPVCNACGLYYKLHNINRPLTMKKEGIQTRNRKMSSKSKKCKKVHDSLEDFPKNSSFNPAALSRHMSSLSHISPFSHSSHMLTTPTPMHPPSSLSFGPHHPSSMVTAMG

Experiment [1] concerns the target T1, GST-full-length (FL) menin (UniProt O00255).
T1 sequence: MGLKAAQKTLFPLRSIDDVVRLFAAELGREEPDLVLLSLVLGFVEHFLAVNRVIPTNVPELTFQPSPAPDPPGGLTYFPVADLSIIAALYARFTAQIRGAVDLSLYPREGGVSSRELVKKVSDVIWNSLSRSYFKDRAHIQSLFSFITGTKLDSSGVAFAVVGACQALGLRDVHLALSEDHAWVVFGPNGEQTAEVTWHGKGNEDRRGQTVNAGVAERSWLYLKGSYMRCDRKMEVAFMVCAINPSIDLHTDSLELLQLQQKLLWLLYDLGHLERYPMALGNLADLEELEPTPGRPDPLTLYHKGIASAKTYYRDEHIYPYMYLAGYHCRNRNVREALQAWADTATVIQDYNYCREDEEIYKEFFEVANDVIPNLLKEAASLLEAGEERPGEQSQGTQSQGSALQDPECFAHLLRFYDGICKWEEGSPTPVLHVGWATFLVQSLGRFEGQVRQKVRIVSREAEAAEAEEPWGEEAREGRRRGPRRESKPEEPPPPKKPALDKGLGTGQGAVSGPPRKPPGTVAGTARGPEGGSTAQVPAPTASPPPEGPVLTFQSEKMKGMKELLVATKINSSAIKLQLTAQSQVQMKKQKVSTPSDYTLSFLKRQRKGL
Briefly: pull-down; 1.25 µg purified GST menin protein or GST control protein incubated with 1 mg or 2 mg of nuclear cell extracts from MCF7 cells; western blot with anti-GATA3 or anti-FOXA1 antibodies; only the target purified.

Experiment [2] deals with T2, FOXA1 (human (endogenous in MCF7)) (UniProt P55317).
T2 sequence: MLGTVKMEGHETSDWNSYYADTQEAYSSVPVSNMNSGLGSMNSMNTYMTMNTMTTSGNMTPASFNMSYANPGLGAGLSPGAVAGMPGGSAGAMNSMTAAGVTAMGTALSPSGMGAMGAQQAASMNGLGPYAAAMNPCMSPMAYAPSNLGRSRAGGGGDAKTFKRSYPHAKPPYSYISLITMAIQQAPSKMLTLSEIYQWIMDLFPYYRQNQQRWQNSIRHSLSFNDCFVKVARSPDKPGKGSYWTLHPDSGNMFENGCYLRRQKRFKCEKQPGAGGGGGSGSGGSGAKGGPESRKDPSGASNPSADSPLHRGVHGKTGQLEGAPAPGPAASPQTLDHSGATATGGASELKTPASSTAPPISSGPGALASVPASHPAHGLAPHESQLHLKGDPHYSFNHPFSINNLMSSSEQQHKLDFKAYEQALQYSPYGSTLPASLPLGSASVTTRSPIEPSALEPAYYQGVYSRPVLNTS
In words: co-IP; nuclear lysates of MCF7 cells incubated with anti-IgG, anti-GATA3 or anti-FOXA1 antibodies, western blot; endogenous level.

Experiment [3] deals with GATA3 (human (endogenous in MCF7)) (UniProt P23771). The description is as above.
Experiment [4] shares this target. Briefly: proximity ligation; Duolink II PLA with anti-menin and anti-GATA3 antibodies in methanol-fixed MCF7 cells; ZR75-1 cells (no menin) as control.

These are yes or no findings as the source states them, for the method shown. In cells and extracts the contact can be indirect. Some results given as binding are weak or reduced against the parent protein; the word gives no strength. For some assays here: Sequences can lack the tags named with a protein.

Regarding GATA3 (from UniProt P23771 1-443), the binding entry in experiment [1] is “binds”.

B1: FOXA1 (protein, UniProt P55317 1-472)
chain: MLGTVKMEGHETSDWNSYYADTQEAYSSVPVSNMNSGLGSMNSMNTYMTMNTMTTSGNMTPASFNMSYANPGLGAGLSPGAVAGMPGGSAGAMNSMTAAGVTAMGTALSPSGMGAMGAQQAASMNGLGPYAAAMNPCMSPMAYAPSNLGRSRAGGGGDAKTFKRSYPHAKPPYSYISLITMAIQQAPSKMLTLSEIYQWIMDLFPYYRQNQQRWQNSIRHSLSFNDCFVKVARSPDKPGKGSYWTLHPDSGNMFENGCYLRRQKRFKCEKQPGAGGGGGSGSGGSGAKGGPESRKDPSGASNPSADSPLHRGVHGKTGQLEGAPAPGPAASPQTLDHSGATATGGASELKTPASSTAPPISSGPGALASVPASHPAHGLAPHESQLHLKGDPHYSFNHPFSINNLMSSSEQQHKLDFKAYEQALQYSPYGSTLPASLPLGSASVTTRSPIEPSALEPAYYQGVYSRPVLNTS
Turning to B1, the binding entry in experiment [1] is “binds”.

B2: menin (protein, UniProt O00255 1-610)
chain: MGLKAAQKTLFPLRSIDDVVRLFAAELGREEPDLVLLSLVLGFVEHFLAVNRVIPTNVPELTFQPSPAPDPPGGLTYFPVADLSIIAALYARFTAQIRGAVDLSLYPREGGVSSRELVKKVSDVIWNSLSRSYFKDRAHIQSLFSFITGTKLDSSGVAFAVVGACQALGLRDVHLALSEDHAWVVFGPNGEQTAEVTWHGKGNEDRRGQTVNAGVAERSWLYLKGSYMRCDRKMEVAFMVCAINPSIDLHTDSLELLQLQQKLLWLLYDLGHLERYPMALGNLADLEELEPTPGRPDPLTLYHKGIASAKTYYRDEHIYPYMYLAGYHCRNRNVREALQAWADTATVIQDYNYCREDEEIYKEFFEVANDVIPNLLKEAASLLEAGEERPGEQSQGTQSQGSALQDPECFAHLLRFYDGICKWEEGSPTPVLHVGWATFLVQSLGRFEGQVRQKVRIVSREAEAAEAEEPWGEEAREGRRRGPRRESKPEEPPPPKKPALDKGLGTGQGAVSGPPRKPPGTVAGTARGPEGGSTAQVPAPTASPPPEGPVLTFQSEKMKGMKELLVATKINSSAIKLQLTAQSQVQMKKQKVSTPSDYTLSFLKRQRKGL
B2: the binding entry in experiment [2], in experiment [3] and in experiment [4] was “binds” in each case.
